This test concerns the target ySUMO-APC-MCR fusion protein (Adenomatous Polyposis Coli Mutation Cluster Region, APC-S1202-K1551) (human) (UniProt P25054). As to the kind of experiment: SEC-MALS; 10 µl of 50 µM ySUMO-APC-MCR injected on Superdex 200 5/150 GL, 0.2 ml/min, 20 mM Tris pH 8, 200 mM KCl, 0.8 mM TCEP; miniDAWN TREOS detector; both purified. (SEC sorts molecules by how far they enter the pores of the column.)

By UniProt entry, the sequences of proteins in these tests, tags left out. Where a name states a change or a piece, a line headed by the entry shows the natural chain unless it says otherwise. Residues count along the entry.
UniProt P25054, residues 1202-1551: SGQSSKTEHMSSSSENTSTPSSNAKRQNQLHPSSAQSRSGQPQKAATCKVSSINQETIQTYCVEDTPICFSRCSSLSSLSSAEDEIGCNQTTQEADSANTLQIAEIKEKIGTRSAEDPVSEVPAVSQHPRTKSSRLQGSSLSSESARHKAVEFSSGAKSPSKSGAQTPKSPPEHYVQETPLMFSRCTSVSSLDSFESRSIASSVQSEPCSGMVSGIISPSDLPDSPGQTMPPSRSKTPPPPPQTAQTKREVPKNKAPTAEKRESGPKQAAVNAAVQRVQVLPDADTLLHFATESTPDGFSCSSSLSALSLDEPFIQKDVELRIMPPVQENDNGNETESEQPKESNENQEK

Results are given in words; binding and its absence hold for the method and conditions named.

As for “ySUMO-APC-MCR fusion protein (Adenomatous Polyposis Coli Mutation Cluster Region, APC-S1202-K1551) (from UniProt P25054 1202-1551) (domain or fragment)”, the binding result is “no binding (tested: 50 µM)”.

The values above are taken from PMC3793970.
